Source: publication PMC3079617

Biological target: DBD (DNA binding domain of PhaR from Ralstonia eutropha, 1st to 106th amino acid) (Ralstonia eutropha H16)
Experiment: two-hybrid; bacterial two-hybrid in E. coli XL1-Blue: DBD (PhaR 1-106)-bait on the phaP promoter, prey-PhaP on PHB granules made in vivo (phaCAB), lacZ reporter under the phaP promoter, read as beta-galactosidase activity; LB with 20 g/L glucose, 14 h, 37°C, 200 rpm

CGGLTDTLQAETDQLEDKKSALQTEIANLLKEKEKLEFILAAY (domain or fragment) [bFos-PhaP (bZIP domain of Fos fused to the PHA granule-associated protein PhaP)]
binding: no binding

Results are given in words; binding and its absence hold for the method and conditions named. Where a sequence is shown, tags or fusion partners need not be part of it.
